Assay results from article PMC7561725.

Amino acid sequences for entries named in this document (tags omitted). A change or cut given only in a name is not applied to a line headed by its entry. Chains listed by the source or under a name are the forms on record and can include a tag or linker.
WDR26-ΔNLS FLAG (Q9H7D7, form named): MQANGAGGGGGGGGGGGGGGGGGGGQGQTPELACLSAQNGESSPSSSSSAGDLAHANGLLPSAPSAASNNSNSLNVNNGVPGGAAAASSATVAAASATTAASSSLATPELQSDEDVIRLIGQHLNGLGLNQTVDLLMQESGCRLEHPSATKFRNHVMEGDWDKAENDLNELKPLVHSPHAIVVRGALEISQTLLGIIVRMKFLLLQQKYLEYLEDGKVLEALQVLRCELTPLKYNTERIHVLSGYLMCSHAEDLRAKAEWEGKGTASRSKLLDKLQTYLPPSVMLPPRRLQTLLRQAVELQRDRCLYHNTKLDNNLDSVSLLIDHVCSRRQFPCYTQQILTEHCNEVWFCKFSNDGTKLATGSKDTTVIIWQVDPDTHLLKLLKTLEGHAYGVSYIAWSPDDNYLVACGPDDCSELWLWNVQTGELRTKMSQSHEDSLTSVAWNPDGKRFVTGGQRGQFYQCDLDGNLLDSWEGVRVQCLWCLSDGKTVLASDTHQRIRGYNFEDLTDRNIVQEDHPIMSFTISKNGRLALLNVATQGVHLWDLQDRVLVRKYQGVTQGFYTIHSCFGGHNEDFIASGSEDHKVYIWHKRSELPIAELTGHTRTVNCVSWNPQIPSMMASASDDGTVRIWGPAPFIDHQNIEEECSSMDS
UniProt Q14978: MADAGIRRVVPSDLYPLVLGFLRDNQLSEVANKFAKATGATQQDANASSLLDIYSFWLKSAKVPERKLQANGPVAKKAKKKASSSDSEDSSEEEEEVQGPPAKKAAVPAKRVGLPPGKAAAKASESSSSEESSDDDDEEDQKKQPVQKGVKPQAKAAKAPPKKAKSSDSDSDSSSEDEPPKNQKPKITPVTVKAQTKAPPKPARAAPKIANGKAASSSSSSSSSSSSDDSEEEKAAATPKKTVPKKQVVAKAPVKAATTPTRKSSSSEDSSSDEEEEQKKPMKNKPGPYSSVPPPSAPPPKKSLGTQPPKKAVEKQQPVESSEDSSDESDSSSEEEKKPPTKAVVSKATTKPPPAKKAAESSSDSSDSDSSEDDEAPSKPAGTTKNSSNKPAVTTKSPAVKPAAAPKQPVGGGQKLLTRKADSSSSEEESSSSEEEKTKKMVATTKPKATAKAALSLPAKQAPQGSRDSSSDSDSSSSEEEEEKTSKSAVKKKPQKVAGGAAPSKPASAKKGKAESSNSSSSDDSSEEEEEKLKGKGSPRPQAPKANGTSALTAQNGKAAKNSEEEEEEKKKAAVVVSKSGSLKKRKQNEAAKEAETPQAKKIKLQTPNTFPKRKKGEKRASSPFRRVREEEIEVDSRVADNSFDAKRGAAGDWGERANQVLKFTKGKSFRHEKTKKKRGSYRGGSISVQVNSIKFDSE

Columns and labels:
WDR26-ΔNES FLAG (human) = WDR26-ΔNES FLAG (human) (UniProt Q9H7D7); assay: affinity purification with mass spectrometry; anti-FLAG M2 magnetic beads on lysates of CA1D cells transfected 24 h with FLAG-tagged WDR26 constructs; 50 mM Tris-HCl pH 8.0, 150 mM NaCl, 1 mM EDTA, 1% NP-40; trypsin digest, LC-MS/MS
WDR26-ΔNLS FLAG (human) = WDR26-ΔNLS FLAG (human) (UniProt Q9H7D7); assay: as above

In the case of NOLC1 (from UniProt Q14978 1-699), the binding (WDR26-ΔNES FLAG (human)) is reported as “binds” and the binding (WDR26-ΔNLS FLAG (human)) is reported as “no binding”.

These are yes or no findings as the source states them, for the method shown. Binding seen in cells or lysates may run through a third protein. A yes stands for co-enrichment or nearness to the bait. Other partners may have been found. For some assays here: No binding means not detected with the bait.
